This is one part of the list.
Compound: Cc1cc(Nc2cc(CN3CCOCC3)c3nc(C)c(Cc4ccc(Cl)cc4F)n3n2)n[nH]1 [gandotinib]
Assay: log2 fold change, soluble protein after heating vs DMSO (PISA); higher = thermal stabilisation; K562 cells, 10 uM, 30 min; active = over 0.2 and 3.5 SD of the protein, either way, in both replicates (recomputed)
Summary of the method: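 For each measurement, 10 μM compound was applied for 30 min to K562 cells at 2×10^6 cells/mL. Aliquots were heated for 3 min across 48°C-58°C, pooled, and extracted in PBS with 0.5% NP-40 at 4°C; the supernatant after 21,000xg for 90 min was soluble protein. This was quantified by TMTpro 16plex LC-MS/MS with channel sums equalised, and thermal stability was reported relative to control samples from duplicates, on a log2 fold-change scale.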

Chains of the proteins cited; added tags and fusions are not shown. Lines headed by an entry give the natural chain unless they say otherwise; changes in a name come on top.
UniProt Q9NXE8: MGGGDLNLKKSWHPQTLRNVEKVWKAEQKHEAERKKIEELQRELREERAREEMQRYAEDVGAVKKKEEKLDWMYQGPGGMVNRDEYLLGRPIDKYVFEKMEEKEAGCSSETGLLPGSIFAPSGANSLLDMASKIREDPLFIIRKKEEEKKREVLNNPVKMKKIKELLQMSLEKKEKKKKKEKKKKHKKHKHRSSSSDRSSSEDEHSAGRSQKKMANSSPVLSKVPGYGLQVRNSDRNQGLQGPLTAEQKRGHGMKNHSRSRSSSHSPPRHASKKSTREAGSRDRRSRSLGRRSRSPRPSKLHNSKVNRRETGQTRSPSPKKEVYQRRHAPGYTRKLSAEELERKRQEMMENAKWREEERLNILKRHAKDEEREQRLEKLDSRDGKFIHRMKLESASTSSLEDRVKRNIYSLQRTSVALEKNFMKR
UniProt P53634: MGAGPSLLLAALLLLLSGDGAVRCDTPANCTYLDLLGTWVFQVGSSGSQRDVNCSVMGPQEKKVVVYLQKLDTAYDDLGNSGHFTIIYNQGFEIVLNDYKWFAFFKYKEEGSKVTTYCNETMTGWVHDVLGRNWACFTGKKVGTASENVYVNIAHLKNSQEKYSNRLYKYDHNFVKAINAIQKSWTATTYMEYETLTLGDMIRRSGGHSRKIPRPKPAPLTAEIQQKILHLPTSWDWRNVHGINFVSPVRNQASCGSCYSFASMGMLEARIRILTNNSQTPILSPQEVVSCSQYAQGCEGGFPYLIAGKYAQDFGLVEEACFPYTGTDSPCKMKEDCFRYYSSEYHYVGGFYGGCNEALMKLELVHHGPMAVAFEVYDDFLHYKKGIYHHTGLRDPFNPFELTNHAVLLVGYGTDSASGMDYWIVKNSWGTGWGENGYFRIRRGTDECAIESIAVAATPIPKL
UniProt P21291: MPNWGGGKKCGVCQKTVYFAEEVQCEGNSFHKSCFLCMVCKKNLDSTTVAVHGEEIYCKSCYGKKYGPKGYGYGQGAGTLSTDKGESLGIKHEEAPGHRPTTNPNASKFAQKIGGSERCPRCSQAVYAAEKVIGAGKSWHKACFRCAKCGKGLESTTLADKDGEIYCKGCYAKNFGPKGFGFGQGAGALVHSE
UniProt Q9Y4B6: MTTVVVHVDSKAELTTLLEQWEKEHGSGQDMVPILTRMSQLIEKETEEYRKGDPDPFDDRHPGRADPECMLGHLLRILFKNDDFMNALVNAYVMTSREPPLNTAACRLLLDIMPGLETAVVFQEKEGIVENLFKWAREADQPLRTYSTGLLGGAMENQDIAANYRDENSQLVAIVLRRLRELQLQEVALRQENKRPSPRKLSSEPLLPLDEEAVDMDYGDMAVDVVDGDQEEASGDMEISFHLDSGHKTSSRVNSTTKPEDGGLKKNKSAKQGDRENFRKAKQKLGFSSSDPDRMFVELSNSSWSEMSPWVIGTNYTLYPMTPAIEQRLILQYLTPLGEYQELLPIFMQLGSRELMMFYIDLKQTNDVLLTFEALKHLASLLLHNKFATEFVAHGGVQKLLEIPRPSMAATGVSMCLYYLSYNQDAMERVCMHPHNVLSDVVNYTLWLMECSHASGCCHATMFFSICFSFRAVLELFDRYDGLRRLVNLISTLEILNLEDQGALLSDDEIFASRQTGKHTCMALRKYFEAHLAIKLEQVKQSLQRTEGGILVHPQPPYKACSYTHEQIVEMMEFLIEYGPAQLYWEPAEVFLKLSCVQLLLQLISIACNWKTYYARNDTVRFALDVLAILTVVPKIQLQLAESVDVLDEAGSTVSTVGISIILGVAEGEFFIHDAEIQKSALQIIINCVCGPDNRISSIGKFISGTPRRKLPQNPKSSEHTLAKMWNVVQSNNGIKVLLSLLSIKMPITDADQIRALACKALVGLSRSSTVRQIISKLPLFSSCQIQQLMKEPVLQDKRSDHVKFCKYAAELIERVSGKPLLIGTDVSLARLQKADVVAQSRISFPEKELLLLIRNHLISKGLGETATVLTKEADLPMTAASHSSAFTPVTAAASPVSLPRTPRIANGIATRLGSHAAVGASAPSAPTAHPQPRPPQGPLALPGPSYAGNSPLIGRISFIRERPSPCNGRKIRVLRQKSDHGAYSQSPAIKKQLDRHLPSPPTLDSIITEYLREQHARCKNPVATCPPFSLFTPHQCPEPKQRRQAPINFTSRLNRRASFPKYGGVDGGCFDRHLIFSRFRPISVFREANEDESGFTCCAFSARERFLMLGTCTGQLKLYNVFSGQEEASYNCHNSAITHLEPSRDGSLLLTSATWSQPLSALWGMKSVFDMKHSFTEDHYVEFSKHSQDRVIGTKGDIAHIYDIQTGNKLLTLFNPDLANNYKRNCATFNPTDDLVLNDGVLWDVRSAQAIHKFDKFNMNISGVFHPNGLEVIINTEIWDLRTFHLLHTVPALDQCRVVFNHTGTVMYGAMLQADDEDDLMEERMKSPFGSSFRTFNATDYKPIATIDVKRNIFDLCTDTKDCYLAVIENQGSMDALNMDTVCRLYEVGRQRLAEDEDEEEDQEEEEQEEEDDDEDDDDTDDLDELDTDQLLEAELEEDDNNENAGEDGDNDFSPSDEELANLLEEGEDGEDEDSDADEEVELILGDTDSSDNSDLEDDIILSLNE
UniProt P35221: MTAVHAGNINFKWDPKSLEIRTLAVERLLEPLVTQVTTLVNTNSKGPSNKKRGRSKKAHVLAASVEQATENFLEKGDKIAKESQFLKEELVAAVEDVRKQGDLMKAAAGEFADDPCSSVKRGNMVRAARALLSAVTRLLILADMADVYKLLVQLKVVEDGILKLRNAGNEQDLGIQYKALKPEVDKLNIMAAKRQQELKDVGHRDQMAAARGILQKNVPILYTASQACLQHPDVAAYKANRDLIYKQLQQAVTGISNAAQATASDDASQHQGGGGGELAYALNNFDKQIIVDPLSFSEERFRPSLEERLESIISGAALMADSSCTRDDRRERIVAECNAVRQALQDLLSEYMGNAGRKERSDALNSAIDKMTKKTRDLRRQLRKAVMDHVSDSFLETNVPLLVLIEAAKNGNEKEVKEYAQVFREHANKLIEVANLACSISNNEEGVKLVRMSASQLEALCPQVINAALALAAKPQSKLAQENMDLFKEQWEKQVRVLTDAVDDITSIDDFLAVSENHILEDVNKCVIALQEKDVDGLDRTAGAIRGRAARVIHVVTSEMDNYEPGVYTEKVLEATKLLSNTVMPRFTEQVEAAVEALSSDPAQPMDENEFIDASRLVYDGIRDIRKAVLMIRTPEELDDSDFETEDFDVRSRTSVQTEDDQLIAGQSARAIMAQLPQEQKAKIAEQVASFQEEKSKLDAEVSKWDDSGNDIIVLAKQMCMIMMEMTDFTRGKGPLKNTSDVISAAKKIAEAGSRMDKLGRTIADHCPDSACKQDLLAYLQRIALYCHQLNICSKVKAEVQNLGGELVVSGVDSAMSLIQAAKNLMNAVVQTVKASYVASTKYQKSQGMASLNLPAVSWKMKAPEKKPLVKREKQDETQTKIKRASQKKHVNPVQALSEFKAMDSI
UniProt Q93034, whole entry, looked up: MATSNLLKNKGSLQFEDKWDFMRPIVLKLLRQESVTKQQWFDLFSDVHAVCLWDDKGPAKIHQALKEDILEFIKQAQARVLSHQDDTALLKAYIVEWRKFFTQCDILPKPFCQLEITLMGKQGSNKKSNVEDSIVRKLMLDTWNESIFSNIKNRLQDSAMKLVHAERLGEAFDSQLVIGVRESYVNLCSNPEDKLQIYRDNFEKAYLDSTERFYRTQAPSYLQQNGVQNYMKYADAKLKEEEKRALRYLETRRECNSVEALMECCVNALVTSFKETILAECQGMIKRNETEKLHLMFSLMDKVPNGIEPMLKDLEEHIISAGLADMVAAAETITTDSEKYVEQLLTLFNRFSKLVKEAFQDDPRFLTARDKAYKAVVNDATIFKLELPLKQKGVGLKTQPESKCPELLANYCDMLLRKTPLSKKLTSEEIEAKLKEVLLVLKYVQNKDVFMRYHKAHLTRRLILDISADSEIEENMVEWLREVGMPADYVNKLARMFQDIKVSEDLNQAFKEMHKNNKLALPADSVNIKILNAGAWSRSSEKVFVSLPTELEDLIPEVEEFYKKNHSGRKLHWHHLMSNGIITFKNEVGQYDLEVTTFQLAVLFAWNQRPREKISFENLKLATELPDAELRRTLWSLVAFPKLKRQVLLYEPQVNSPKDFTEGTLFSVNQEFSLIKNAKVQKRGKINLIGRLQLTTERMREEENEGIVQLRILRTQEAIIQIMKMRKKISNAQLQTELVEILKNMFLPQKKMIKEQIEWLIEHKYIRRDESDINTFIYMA
UniProt P32321: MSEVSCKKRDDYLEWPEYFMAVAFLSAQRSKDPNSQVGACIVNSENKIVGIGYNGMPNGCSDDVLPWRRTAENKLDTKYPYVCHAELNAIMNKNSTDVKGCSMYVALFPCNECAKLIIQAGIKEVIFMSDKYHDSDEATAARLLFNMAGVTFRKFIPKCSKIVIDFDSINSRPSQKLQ
UniProt Q96C86: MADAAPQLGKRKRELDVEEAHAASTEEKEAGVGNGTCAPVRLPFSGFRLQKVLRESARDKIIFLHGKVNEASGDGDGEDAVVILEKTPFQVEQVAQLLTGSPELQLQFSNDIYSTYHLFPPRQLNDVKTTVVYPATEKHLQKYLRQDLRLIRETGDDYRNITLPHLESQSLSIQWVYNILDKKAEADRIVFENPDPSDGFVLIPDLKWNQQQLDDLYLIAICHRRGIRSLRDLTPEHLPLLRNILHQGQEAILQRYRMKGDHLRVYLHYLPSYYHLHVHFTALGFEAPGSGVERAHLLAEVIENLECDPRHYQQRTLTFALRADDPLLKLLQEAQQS
UniProt P04080: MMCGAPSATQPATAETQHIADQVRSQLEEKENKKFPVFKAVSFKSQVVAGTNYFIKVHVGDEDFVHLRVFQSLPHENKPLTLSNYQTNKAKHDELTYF
UniProt Q16643: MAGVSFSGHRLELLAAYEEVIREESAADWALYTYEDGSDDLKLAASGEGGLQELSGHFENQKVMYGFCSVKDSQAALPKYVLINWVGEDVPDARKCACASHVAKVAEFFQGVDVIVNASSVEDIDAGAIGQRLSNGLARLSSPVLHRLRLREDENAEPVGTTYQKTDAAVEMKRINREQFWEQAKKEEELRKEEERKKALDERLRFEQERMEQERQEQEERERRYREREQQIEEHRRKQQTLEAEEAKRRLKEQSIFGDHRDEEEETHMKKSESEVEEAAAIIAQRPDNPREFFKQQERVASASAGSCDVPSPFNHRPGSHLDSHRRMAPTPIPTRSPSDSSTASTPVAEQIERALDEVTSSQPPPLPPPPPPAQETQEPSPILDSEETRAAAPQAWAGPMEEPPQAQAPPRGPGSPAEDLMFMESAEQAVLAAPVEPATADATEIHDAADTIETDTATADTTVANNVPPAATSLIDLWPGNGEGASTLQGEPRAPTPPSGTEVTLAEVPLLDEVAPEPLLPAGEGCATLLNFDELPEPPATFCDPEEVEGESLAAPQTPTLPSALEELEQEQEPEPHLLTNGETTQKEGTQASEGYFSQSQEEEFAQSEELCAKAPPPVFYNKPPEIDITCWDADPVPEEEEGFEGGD
UniProt Q9UK59: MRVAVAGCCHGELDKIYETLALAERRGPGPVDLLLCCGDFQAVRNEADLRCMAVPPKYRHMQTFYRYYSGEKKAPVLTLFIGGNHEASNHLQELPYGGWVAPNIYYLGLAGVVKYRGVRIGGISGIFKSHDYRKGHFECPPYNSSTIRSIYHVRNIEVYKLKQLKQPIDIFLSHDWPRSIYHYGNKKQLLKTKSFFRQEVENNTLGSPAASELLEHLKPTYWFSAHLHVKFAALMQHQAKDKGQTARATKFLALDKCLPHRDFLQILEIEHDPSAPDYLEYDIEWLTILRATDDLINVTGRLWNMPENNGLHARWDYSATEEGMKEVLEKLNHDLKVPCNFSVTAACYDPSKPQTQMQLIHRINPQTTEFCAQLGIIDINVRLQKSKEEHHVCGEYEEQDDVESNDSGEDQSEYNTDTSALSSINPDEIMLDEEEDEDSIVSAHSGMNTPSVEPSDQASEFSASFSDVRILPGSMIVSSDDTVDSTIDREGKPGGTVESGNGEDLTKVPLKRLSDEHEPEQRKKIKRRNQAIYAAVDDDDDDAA
UniProt P0DMU9: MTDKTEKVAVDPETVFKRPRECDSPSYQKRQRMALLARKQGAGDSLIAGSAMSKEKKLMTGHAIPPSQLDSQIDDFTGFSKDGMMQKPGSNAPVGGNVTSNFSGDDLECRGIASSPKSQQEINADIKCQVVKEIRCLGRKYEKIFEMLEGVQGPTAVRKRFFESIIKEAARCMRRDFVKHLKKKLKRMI

log2 fold change, inactive:
CUEDC2 (UniProt Q9H467) -0.017
DCTN3 (UniProt O75935) -0.016
CWC25 (UniProt Q9NXE8) 0.249
D2HGDH (UniProt Q8N465) 0
CTSC (UniProt P53634) 0
CTCF (UniProt P49711) 0.23
CYP20A1 (UniProt Q6UW02) -0.189
CTH (UniProt P32929) -0.093
CTNNA2 (UniProt P26232) -0.04
CTBP2 isoform 2 (UniProt P56545) -0.03
CSRP1 (UniProt P21291) 0.052
CSTF1 (UniProt Q05048) -0.007
DARS (UniProt P14868) 0.01
CXorf56 (UniProt Q9H5V9) 0.008
CYFIP2 (UniProt Q96F07) -0.052
CTNND1 (UniProt O60716) 0.099
DCAF1 (UniProt Q9Y4B6) 0.011
CYBC1 (UniProt Q9BQA9) -0.126
CTNNA1 isoform 2 (UniProt P35221) -0.012
DBT (UniProt P11182) 0.005
CUL5 (UniProt Q93034) -0.046
DCTD isoform 2 (UniProt P32321) -0.051
CTPS1 (UniProt P17812) 0.028
CYB5R2 (UniProt Q6BCY4) 0.061
CYB5B, A0A499FJ32 -0.061
CST3 (UniProt P01034) 0.017
DCK (UniProt P27707) 0.146
CTU1 (UniProt Q7Z7A3) -0.015
CTBP1 (UniProt Q13363) -0.077
DCPS (UniProt Q96C86) 0.012
CSTB (UniProt P04080) -0.052
DBN1 isoform 3 (UniProt Q16643) -0.009
DCAKD (UniProt Q8WVC6) -0.011
DBR1 (UniProt Q9UK59) 0.003
CT45A10 (UniProt P0DMU9) 0.154
DAP3 (UniProt P51398) 0.011

3 records picked at random from the list so far:
log2 fold change, inactive:
CXorf56 (UniProt Q9H5V9) 0.008
DCAF1 (UniProt Q9Y4B6) 0.011
D2HGDH (UniProt Q8N465) 0
